# Laboratory results from patent US20230113836A1 (ENLITISA (SHANGHAI) PHARMACEUTICAL CO., LTD., priority 2019, published 2023).
# Experiment: general procedure: Fmoc solid-phase peptide synthesis; Fmoc-Lys(Boc)-Wang resin; Fmoc-Lys(fmoc)-Wang resin (GL Biochem); TBTU/DIPEA
# Conditions: whole synthesis, scale of the general procedure 9.15 g resin, 9.9 g resin, acetate (ammonium acetate wash, 0.1% HAc elution)
# [1] = HPLC, UV at 220 nm (Shimadzu LCMS-8050 / LC-20, ZORBAX Eclipse SB-C18)
Substance,final HPLC purity [1],crude HPLC purity (UV 220 nm),crude HPLC purity [1]
(Ala-Lys-Pro-Ser-Tyr-Hyp-Hyp-Thr-DOPA-Lys)2 (SEQ ID No: 11),98%,60.345%,–
(Ala-Lys-Pro-Ser-Tyr-Hyp-Hyp-Thr-DOPA-Lys)2-Lys,–,–,68.985%
